Experimental data as given in PubChem BioAssay AID2685 (National Center for Advancing Translational Sciences (NCATS), 2010).
Some of the results follow. Shown are side measurements of this screen, not its main read-out; they come without a call. Compounds called inactive in the main read-out are mostly missing here. Words in brackets tell the shape of the fitted curve; partial curves, single points and poor fits give uncertain potencies.

Assay: qHTS Assay for Lipid Storage Modulators in Drosophila S3 Cells;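 on cell number change: cells counted by Cell Tracker Red CMTPX staining in the red channel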
Conditions: BODIPY lipid droplet fluorescence, 18-24 h; for cell number change: measured here: cell count max response, cells fed with added oleic acid
Procedure, shortened: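 Drosophila S3 cells got compounds at several concentrations plus oleic acid (400 uM solution). Laser-scanning cytometry with 488 nm excitation read lipid droplets at 500-530 nm and cells at 575-640 nm. Percent activity was relative to 20 uM Triacsin C.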

[1] = measured here: lipid fluorescence (Fed channel) AC50, cells fed with added oleic acid
[2] = measured here: cell number channel AC50, cells fed with added oleic acid

| SMILES | cell number change | AC50 [1] | AC50 [2] |
| --- | --- | --- | --- |
| Cc1cc(C)cc(NC(=O)COC(=O)CCC2CCCC2)c1 | -11.2% |  |  |
| O=c1ccc(-c2ccc(S(=O)(=O)N3CCN(c4ccccc4)CC3)o2)n[nH]1 | 7.37% |  |  |
| CSc1ccccc1NC(=O)CN(C)CC(=O)c1c(C)[nH]c2ccccc12 | -5.91% | 0.651 µM [rising, full curve, poor fit] |  |
| CCC(COC(=O)Nc1cccc(C)c1)NC(=O)OCC(C)C (configuration not stated) | -15.7% | 0.651 µM [rising, full curve] |  |
| O=C(CCCN1C(=O)CCC1=O)Nc1ccc(Br)cc1F | 48.2% | 16.4 µM [rising, single point] | 20.6 µM [rising, single point] |
| CCCn1c(CCc2ccccc2)nnc1SCC(=O)N1CCOCC1 | 76.2% | 29.1 µM [rising, single point] | 13 µM [rising, partial curve] |
| Cc1noc(/C=C/N(C)C)c1S(=O)(=O)N1CCCC(C(=O)NC2CCCCC2C)C1 (configuration not stated) | -61.4% | 20.6 µM [falling, single point] | 23.1 µM [falling, single point] |
| CCc1cccc2c(C(=O)Cn3nnc(-c4ccc(OC)c(OC)c4)n3)c[nH]c12 |  | 0.58 µM [rising, single point] | 0.103 µM [rising, full curve] |
| CCN(CC)CCNC(=O)c1cc(-c2ccco2)nc2ccccc12 | -29.3% | 32.6 µM [falling, partial curve, poor fit] |  |
| O=C(CSc1nc2[nH]ncc2c(=O)[nH]1)Nc1ccccc1F | 32% |  | 8.2 µM [rising, partial curve, poor fit] |
| COCCCNc1nc(=S)[nH]c2cc(OC)c(OC)cc12 | -34.2% | 0.00461 µM [falling, full curve, poor fit] | 20.6 µM [falling, single point] |
| CSc1ccccc1NC(=O)c1cnc2scc(C)n2c1=O | 126% |  | 18.4 µM [rising, single point] |
| CCOc1ccc(CCNC(=O)COC(=O)c2nc(Cl)ccc2Cl)cc1OCC | -17% | 25.9 µM [falling, single point] |  |
| NC(=S)NNC(=O)c1cccc(Br)c1 |  | 4.11 µM [rising, full curve, poor fit] |  |
| COc1ccc(CNc2nnnn2C)c(OC)c1 |  | 6.51 µM [falling, single point] |  |
| CCc1ccccc1NC(=O)c1cc([N+](=O)[O-])ccc1N1CCOCC1 | -17.9% |  |  |
| Cc1nnc(NC(=O)CSc2nnc3c(n2)[nH]c2ccc(Br)cc23)s1 | 12.4% | 6.51 µM [rising, single point] |  |
| CC(OC(=O)C1=COCCO1)C(=O)Nc1ccc(Cl)cn1 (configuration not stated) | 175% | 7.31 µM [falling, partial curve, poor fit] | 6.51 µM [falling, partial curve, poor fit] |
| O=C(COC(=O)c1ccccc1O)Nc1cccc(S(=O)(=O)NC2=NCCCCC2)c1 | 1.39% |  |  |
| CCn1cc(Br)c(C(=O)Nc2ccc(F)c(Cl)c2)n1 | -12.4% | 0.058 µM [rising, full curve, poor fit] |  |

Look-ups from the entries so far:
`O=C(CCCN1C(=O)CCC1=O)Nc1ccc(Br)cc1F` | AC50 [2]: 20.6 µM [rising, single point]
`CCC(COC(=O)Nc1cccc(C)c1)NC(=O)OCC(C)C` (configuration not stated) | AC50 [1]: 0.651 µM [rising, full curve]

Next part.

| SMILES | cell number change | AC50 [1] | AC50 [2] |
| --- | --- | --- | --- |
| CC(=O)c1ccc(N2CCN(c3ccnc4cc(Cl)ccc34)CC2)cc1 | 31.6% | 4.61 µM [rising, single point] | 9.2 µM [rising, partial curve, poor fit] |
| CCOc1ccc(C(=O)N2CCN(Cc3ccccc3)CC2)cc1 | 2.28% | 9.2 µM [rising, partial curve, poor fit] |  |
| Fc1ccccc1COc1ccc(Br)cc1CNCc1cccnc1 |  |  | 0.00461 µM [falling, full curve, poor fit] |
| c1ccc(Cn2nnc3c(NCC4CCCO4)ncnc32)cc1 (configuration not stated) | 1.13% | 0.731 µM [rising, partial curve, poor fit] |  |
| CC(C)CCn1cnc2c(NCc3ccccc3)ncnc21 |  | 0.651 µM [rising, single point] | 1.84 µM [rising, partial curve] |
| Cc1ccc(-n2c(Cc3cccn3C)nnc2SCC(=O)Nc2ccc3c(c2)OCO3)cc1 | -23% | 8.2 µM [falling, partial curve, poor fit] |  |
| COc1ccc(CCN(C(=O)c2ccco2)C(C(=O)NC2CCCC2)c2ccncc2)cc1OC (configuration not stated) | -20.4% | 29.1 µM [falling, single point] |  |
| COc1ccc(CCNC(=O)CCn2cccc2)cc1OC | -0.41% | 14.6 µM [rising, single point] |  |
| CC(=O)Nc1ccc(S(=O)(=O)NC2CC(=O)N(c3ccc(C)c(C)c3)C2)cc1 (configuration not stated) | 64% |  | 13 µM [rising, partial curve] |
| CC(C)c1ccc2oc(-c3ccc(NC(=O)c4ncn[nH]4)cc3)nc2c1 |  |  | 6.51 µM [rising, single point] |
| COc1cc(=O)[nH]c(SC(C)C(=O)Nc2cc(C)on2)n1 (configuration not stated) | -5% | 0.651 µM [falling, single point] |  |
| O=C(CSc1cccs1)NCCc1ccccc1 |  | 0.116 µM [rising, full curve, poor fit] |  |
| COc1ccc2cc(C#N)c(Nc3cccc(F)c3)nc2c1 | 29.5% |  |  |
| O=C(COC(=O)Cc1ccccc1[N+](=O)[O-])NNC(=O)c1ccc([N+](=O)[O-])cc1 | 18.2% | 23.1 µM [rising, single point] |  |
| CN1CCc2c(sc(NC(=O)CS(=O)(=O)c3ccccc3)c2C(N)=O)C1 | -6.73% |  | 0.0731 µM [falling, full curve, poor fit] |
| CCC(C)NC(=O)C1CCCN(C(=O)Nc2ccc(F)cc2)C1 (configuration not stated) | -0.97% |  |  |
| Cc1cc2c(cc1S(=O)(=O)Nc1cccc(C)c1C)n(C)c(=O)c(=O)n2C |  | 1.64 µM [falling, full curve] |  |
| COc1ccccc1NC(=O)CSc1nc(O)cc(=O)n1-c1ccccc1OC | -5.75% | 0.13 µM [rising, full curve, poor fit] |  |
| COc1ccc(-n2c(C)nc3cc(C(=O)NCCN4CCOCC4)ccc32)cc1 | -7.55% | 0.00461 µM [falling, full curve, poor fit] |  |
